# Values quoted from earlier work, collected in patent US20100316713A1, “PHARMACEUTICAL COMPOSITION” (priority 2007, published 2010).
# At least one structure is not confirmed: it was looked up by name or label, or the drawing left a doubt.
# Settings: cited from earlier work
smiles,measurement,value
"CN1CCN(c2nc(C3=C(c4c[nH]c5ccccc45)C(=O)NC3=O)c3ccccc3n2)CC1 [3-(1.H.-indol-3-yl)-4-[2-(4-methyl-piperazin-1-yl)-quinazolin-4-yl]-pyrrole-2,5-dione]",immunosuppressive activity,immunosuppressive activity
